This assay concerns P388 leukemia ip, CD2F1 mice, survival T/C. Kind of assay: NCI In Vivo Anticancer Drug Screen. Data for tumor model P388 Leukemia (intraperitoneal) in CD2F1 (CDF1) mice. As to conditions: T/C endpoint: median survival time, higher T/C = longer survival.
The mark [1] stands for this setting: dose: 25.0 mg/kg/injection, schedule: Q01DX009 (ip), vehicle: saline with Tween-80.
Where [2] appears, read: dose: 50.0 mg/kg/injection, schedule: Q01DX009 (ip), vehicle: saline with Tween-80.
Setting [3] is: dose: 100.0 mg/kg/injection, schedule: Q01DX009 (ip), vehicle: saline with Tween-80.
The mark [4] stands for this setting: dose: 200.0 mg/kg/injection, schedule: Q01DX009 (ip), vehicle: saline with Tween-80.
The mark [5] stands for this setting: dose: 400.0 mg/kg/injection, schedule: Q01DX009 (ip), vehicle: saline with Tween-80.
Setting [6] is: dose: 100.0 mg/kg/injection, schedule: Q01DX009 (ip), vehicle: Klucel (hydroxypropylcellulose) (HPC).
Setting [7] is: dose: 50.0 mg/kg/injection, schedule: Q01DX009 (ip), vehicle: saline.
Setting [8] is: dose: 100.0 mg/kg/injection, schedule: Q01DX009 (ip), vehicle: saline.
The mark [9] stands for this setting: dose: 200.0 mg/kg/injection, schedule: Q01DX009 (ip), vehicle: saline.

SMILES strings stand for the structures. The list shows only some results of the screen, not a fair sample: it covers a few groups of compounds. Other doses and runs of a compound may be missing. T/C: endpoint of the treated group in % of that of the vehicle group. Some entries give survivors of the animals treated and no T/C: the source holds a T/C of zero for them, seemingly a mark for toxic or unscored doses. Some doses without a T/C left all or most animals alive at the check, yet need not have been tolerated: the source hardly ever lists a survival T/C far under the control, and the zero likely stands for such cases as well. Survivors were counted at the toxicity check, usually on the fifth day, unless a day is given; later deaths do not show. Schedule codes are those of the source, taken here to give the interval after Q, in days (D) or hours (H), and the number of doses after X. For survival time, this PubChem deposit counts one and a half times the control or more as active, and values a quarter to a half above the control carry no call in these data; other NCI protocols may use other cut-offs. Brackets with × stand for listed records that agree. Some entries were tested several times; their values stand side by side, smallest first. Some T/C values are marked as having no survivor count here; that says nothing about deaths at the dose. Some T/C values are followed by the survivors on the day toxicity was checked, most often the fifth; without a count or a note in brackets, all were alive then.

Regarding `CC(=O)Nc1ccc(N(CCCl)CCCl)cc1C`, the survivor count is on record as 6 of 6 (dose: 100.0 mg/kg/injection, schedule: Q01DX001 (ip), vehicle: Klucel (hydroxypropylcellulose) (HPC)); 2 of 6 (dose: 200.0 mg/kg/injection, schedule: Q01DX001 (ip), vehicle: Klucel (hydroxypropylcellulose) (HPC)); 0 of 6 (dose: 400.0 mg/kg/injection, schedule: Q01DX001 (ip), vehicle: Klucel (hydroxypropylcellulose) (HPC)).

In the case of `NC(=O)c1[nH]cnc1/N=N\N(CCCl)CCCl`, the T/C (dose: 12.5 mg/kg/injection, schedule: Q01DX009 (ip), vehicle: saline with Tween-80) is 137 % of control [9 of 10 alive]; the T/C under setting [1] is 137 % of control; the T/C under setting [2] was 175 % of control; the T/C under setting [3] was 269 % of control; the T/C under setting [4] is 233 % of control; the T/C under setting [5] is 93 % of control.

Take `CC(C)OP(C)(=O)O.[V]`: under setting [6], the T/C is 87 % of control [survivor count not shown].

As to `COP(C)(=O)O.[V]`, the T/C was 101 % of control [survivor count not shown] (dose: 50.0 mg/kg/injection, schedule: Q01DX001 (ip), vehicle: saline with Tween-80); 93 [survivor count not shown] and 105 % of control [survivor count not shown] (dose: 100.0 mg/kg/injection, schedule: Q01DX001 (ip), vehicle: saline with Tween-80).

For `ClC1CSC1`, the T/C is 95 % of control (dose: 25.0 mg/kg/injection, schedule: Q01DX009 (ip), vehicle: other); 104 % of control (dose: 25.0 mg/kg/injection, schedule: Q01DX009 (ip), vehicle: saline sonified); 95 % of control under setting [1]; 95 % of control (dose: 50.0 mg/kg/injection, schedule: Q01DX009 (ip), vehicle: saline sonified); 95 % of control under setting [2]; 95 % of control [4 of 6 alive] (dose: 100.0 mg/kg/injection, schedule: Q01DX009 (ip), vehicle: other). For the same compound, the T/C by setting is: (dose: 100.0 mg/kg/injection, schedule: Q01DX009 (ip), vehicle: saline sonified) 95 % of control; under setting [3], 95 % of control; (dose: 200.0 mg/kg/injection, schedule: Q01DX009 (ip), vehicle: saline sonified) 90 % of control [4 of 6 alive]. Also, the survivor count reads like this: (dose: 50.0 mg/kg/injection, schedule: Q01DX009 (ip), vehicle: other) 4 of 6; (dose: 200.0 mg/kg/injection, schedule: Q01DX009 (ip), vehicle: other) 4 of 6; under setting [4], 4 of 6; (dose: 400.0 mg/kg/injection, schedule: Q01DX009 (ip), vehicle: other) 0 of 6; (dose: 400.0 mg/kg/injection, schedule: Q01DX009 (ip), vehicle: saline sonified) 0 of 6; under setting [5], 1 of 6.

As for `O=[N+]([O-])c1cc([N+](=O)[O-])c(Nc2cc(Cl)cc(Cl)c2)c([N+](=O)[O-])c1`, the T/C is, setting by setting: under setting [2], 97 % of control; under setting [3], 103 % of control; under setting [4], 95 % of control.

Regarding `O=P(NCCCO)(OCCCl)N(CCCl)CCCl` (centres undefined), the T/C by setting is: under setting [7], 95 % of control; under setting [8], 90 % of control; (dose: 100.0 mg/kg/injection, schedule: Q04DX003 (ip), vehicle: alcohol) 104 % of control; under setting [9], 109 % of control; (dose: 200.0 mg/kg/injection, schedule: Q04DX003 (ip), vehicle: alcohol) 113 % of control; (dose: 400.0 mg/kg/injection, schedule: Q04DX003 (ip), vehicle: alcohol) 131 % of control.

Consider `C(Cc1nn[nH]n1)c1nn[nH]n1`, for which the T/C (dose: 50.0 mg/kg/injection, schedule: Q01DX009 (ip), vehicle: Klucel (hydroxypropylcellulose) (HPC)) is 115 % of control; the T/C under setting [6] is 98 % of control; the T/C (dose: 200.0 mg/kg/injection, schedule: Q01DX009 (ip), vehicle: Klucel (hydroxypropylcellulose) (HPC)) is 112 % of control.

For `COC(=O)N(CCCl)CCCl`, the T/C by setting is: (dose: 100.0 mg/kg/injection, schedule: Q04DX003 (ip), vehicle: Klucel (hydroxypropylcellulose) (HPC)) 112 % of control; (dose: 200.0 mg/kg/injection, schedule: Q04DX003 (ip), vehicle: Klucel (hydroxypropylcellulose) (HPC)) 115 % of control [5 of 6 alive]. For the same compound, the survivor count (dose: 400.0 mg/kg/injection, schedule: Q04DX003 (ip), vehicle: Klucel (hydroxypropylcellulose) (HPC)) was 1 of 6.

Consider `O=[N+]([O-])c1cccc2c1no[n+]2[O-]`, for which the T/C was 118 % of control (dose: 6.25 mg/kg/injection, schedule: Q01DX005 (ip), vehicle: saline with Tween-80) and 114 % of control (dose: 12.5 mg/kg/injection, schedule: Q01DX005 (ip), vehicle: saline with Tween-80). Moreover, the survivor count (dose: 25.0 mg/kg/injection, schedule: Q01DX005 (ip), vehicle: saline with Tween-80) is listed as 5 of 6; the survivor count (dose: 50.0 mg/kg/injection, schedule: Q01DX005 (ip), vehicle: saline with Tween-80) is 3 of 6; the survivor count (dose: 100.0 mg/kg/injection, schedule: Q01DX005 (ip), vehicle: saline with Tween-80) is reported as 1 of 6; the survivor count (dose: 200.0 mg/kg/injection, schedule: Q01DX005 (ip), vehicle: saline with Tween-80) is recorded as 0 of 6.

For `O=[N+]([O-])c1cc([N+](=O)[O-])c(O)c([N+](=O)[O-])c1.c1csc(C2CCCN2)c1`, the T/C was 100 % of control (dose: 60.0 mg/kg/injection, schedule: Q01DX005 (ip), vehicle: saline with Tween-80) and 107 % of control (dose: 120.0 mg/kg/injection, schedule: Q01DX005 (ip), vehicle: saline with Tween-80). Further, the survivor count (dose: 240.0 mg/kg/injection, schedule: Q01DX005 (ip), vehicle: saline with Tween-80) is 0 of 6.

Consider `O=[N+]([O-])c1ccc(N/N=C2/CCCC/C(=N\Nc3ccc([N+](=O)[O-])cc3[N+](=O)[O-])CS(=O)(=O)C2)c([N+](=O)[O-])c1`, for which the T/C (dose: 25.0 mg/kg/injection, schedule: Q01DX005 (ip), vehicle: Klucel + Tween-80) was 99 % of control; the T/C (dose: 50.0 mg/kg/injection, schedule: Q01DX005 (ip), vehicle: Klucel + Tween-80) is 97 % of control; the T/C (dose: 100.0 mg/kg/injection, schedule: Q01DX005 (ip), vehicle: Klucel + Tween-80) was 96 % of control.

Consider `ClC(CBr)CSC(Cl)(Cl)SC1CCCCC1` (centres undefined), for which the T/C under setting [1] was 100 and 107 % of control; the T/C under setting [2] was 97 and 103 % of control; the T/C under setting [7] was 88 % of control; the T/C under setting [3] is 99 and 106 % of control; the T/C under setting [8] is 99 % of control; the T/C under setting [4] is 106 % of control (2×). For the same compound, the T/C under setting [9] was 142 % of control [5 of 6 alive].

For `O=[N+]([O-])c1cc([N+](=O)[O-])c(C=Cc2c([N+](=O)[O-])cc([N+](=O)[O-])c(Cl)c2[N+](=O)[O-])c([N+](=O)[O-])c1`, the T/C is 96 % of control (dose: 100.0 mg/kg/injection, schedule: Q04DX003 (ip), vehicle: saline); 92 % of control (dose: 200.0 mg/kg/injection, schedule: Q04DX003 (ip), vehicle: saline); 101 % of control (dose: 400.0 mg/kg/injection, schedule: Q04DX003 (ip), vehicle: saline).

The record behind these values is PubChem BioAssay AID330 (DTP/NCI, 2004).
